This experiment concerns the target T1, MYC epitope tagged wild type Xenopus FOG (xFOG-MYC) (Xenopus laevis) (UniProt Q9I9K0).
T1 sequence: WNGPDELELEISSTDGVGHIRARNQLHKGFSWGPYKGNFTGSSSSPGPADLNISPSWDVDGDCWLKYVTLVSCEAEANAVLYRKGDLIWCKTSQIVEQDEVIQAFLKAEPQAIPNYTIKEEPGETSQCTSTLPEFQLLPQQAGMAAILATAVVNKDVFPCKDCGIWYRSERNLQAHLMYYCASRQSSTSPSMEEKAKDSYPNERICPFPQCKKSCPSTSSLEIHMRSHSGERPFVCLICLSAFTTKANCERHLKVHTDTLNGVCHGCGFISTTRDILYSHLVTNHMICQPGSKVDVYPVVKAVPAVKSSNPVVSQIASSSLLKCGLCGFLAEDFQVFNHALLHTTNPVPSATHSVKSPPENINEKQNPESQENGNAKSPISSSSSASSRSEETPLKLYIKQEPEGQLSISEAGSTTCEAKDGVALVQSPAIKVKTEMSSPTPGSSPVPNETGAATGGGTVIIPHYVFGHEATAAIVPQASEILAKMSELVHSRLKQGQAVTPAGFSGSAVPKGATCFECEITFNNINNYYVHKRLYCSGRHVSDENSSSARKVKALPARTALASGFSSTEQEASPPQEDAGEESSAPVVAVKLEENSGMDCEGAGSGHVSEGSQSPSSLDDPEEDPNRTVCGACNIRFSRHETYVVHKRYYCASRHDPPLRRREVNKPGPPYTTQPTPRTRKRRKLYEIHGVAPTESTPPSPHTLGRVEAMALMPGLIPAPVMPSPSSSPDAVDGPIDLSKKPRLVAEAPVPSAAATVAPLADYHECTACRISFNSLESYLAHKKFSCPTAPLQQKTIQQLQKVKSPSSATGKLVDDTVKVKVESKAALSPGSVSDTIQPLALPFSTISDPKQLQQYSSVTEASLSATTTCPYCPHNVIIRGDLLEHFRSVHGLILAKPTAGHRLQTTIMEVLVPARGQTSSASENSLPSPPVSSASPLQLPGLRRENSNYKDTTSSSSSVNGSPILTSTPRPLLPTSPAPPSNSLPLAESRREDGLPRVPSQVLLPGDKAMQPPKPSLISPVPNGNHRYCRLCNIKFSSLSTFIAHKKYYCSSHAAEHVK
In words: co-IP; HeLa cells transfected with 0.5 ug xGATA-2HA and 5.0 ug wild type or mutant xFOG-MYC; lysates after 24 hours; anti-MYC (9B11) overnight at 4 C, Protein G sepharose, four washes in binding buffer; blot with anti-HA.

Chains of the proteins cited; added tags and fusions are not shown.
UniProt P23770: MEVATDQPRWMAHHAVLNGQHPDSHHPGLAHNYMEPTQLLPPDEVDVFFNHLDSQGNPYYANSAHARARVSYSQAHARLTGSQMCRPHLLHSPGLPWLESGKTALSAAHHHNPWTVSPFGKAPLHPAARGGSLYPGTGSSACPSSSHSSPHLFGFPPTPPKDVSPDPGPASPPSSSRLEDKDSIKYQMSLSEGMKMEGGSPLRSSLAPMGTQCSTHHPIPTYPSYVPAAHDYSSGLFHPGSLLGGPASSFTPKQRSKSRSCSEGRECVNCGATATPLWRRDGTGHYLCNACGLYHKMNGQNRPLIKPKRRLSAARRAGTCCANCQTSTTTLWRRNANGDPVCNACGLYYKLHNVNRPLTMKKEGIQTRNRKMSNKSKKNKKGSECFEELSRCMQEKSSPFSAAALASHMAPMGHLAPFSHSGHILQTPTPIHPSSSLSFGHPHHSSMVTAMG

These are yes or no findings as the source states them, for the method shown. In cells and extracts the contact can be indirect. Some results given as binding are weak or reduced against the parent protein; the word gives no strength. Tags and fused reporters may be left off the sequences shown.

Regarding “HA-tagged GATA-2 (xGATA-2HA) (from UniProt P23770 1-452)”, the binding result is “binds”.
